# Source: PMC9308790
# Amino acid sequences for entries named in this document (tags omitted).
# UniProt P26450: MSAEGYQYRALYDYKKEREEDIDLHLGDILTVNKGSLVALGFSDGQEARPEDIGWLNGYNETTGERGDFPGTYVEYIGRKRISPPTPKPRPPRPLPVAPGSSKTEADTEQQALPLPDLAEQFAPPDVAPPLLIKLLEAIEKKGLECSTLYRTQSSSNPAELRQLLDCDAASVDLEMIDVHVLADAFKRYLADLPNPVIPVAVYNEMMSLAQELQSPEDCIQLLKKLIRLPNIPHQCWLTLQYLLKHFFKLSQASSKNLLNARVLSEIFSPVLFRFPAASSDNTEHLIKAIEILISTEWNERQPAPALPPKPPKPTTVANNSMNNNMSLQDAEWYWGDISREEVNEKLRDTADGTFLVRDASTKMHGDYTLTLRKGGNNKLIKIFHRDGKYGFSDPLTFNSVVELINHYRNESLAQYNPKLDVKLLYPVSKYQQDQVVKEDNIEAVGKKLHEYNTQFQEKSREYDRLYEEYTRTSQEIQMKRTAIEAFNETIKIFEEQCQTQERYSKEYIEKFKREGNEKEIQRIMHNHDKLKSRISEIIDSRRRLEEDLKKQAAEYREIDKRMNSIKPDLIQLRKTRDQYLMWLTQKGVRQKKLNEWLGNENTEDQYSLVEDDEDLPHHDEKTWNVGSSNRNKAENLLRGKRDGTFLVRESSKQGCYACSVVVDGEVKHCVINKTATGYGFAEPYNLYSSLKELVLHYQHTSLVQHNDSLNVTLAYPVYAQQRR
# UniProt P27986: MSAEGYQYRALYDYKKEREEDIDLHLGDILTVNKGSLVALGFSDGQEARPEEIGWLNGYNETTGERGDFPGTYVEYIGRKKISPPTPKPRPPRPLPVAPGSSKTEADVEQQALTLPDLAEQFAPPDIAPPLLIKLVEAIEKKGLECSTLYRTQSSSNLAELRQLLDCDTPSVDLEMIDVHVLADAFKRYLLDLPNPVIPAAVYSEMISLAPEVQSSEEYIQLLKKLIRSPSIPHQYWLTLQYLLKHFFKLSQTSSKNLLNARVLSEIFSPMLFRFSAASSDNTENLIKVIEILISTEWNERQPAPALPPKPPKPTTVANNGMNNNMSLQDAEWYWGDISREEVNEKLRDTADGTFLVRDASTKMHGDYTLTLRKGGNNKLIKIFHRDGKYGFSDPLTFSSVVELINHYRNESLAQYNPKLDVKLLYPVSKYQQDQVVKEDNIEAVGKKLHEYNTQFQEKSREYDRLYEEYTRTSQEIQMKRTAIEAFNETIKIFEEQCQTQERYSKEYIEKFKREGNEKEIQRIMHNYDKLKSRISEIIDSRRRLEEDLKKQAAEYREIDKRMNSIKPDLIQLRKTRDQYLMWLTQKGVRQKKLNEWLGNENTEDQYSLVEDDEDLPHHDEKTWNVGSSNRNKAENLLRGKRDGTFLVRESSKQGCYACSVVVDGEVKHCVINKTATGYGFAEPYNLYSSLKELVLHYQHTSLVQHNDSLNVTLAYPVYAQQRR
# UniProt Q61510: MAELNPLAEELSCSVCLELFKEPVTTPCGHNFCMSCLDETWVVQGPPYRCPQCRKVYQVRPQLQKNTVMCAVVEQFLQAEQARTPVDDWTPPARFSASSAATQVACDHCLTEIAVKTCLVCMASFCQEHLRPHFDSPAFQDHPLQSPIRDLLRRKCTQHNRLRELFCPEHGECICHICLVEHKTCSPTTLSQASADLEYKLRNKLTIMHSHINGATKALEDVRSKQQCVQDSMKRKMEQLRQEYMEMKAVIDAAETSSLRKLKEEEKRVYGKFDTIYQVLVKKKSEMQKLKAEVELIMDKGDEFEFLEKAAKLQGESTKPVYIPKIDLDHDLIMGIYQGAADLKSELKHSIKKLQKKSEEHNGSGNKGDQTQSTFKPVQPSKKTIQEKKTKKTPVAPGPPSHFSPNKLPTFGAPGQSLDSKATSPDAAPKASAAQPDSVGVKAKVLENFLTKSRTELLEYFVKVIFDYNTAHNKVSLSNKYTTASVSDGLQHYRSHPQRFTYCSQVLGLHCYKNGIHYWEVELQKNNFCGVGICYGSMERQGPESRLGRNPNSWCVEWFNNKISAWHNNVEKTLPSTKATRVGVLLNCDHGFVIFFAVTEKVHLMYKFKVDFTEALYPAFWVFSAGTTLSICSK
# UniProt Q14258: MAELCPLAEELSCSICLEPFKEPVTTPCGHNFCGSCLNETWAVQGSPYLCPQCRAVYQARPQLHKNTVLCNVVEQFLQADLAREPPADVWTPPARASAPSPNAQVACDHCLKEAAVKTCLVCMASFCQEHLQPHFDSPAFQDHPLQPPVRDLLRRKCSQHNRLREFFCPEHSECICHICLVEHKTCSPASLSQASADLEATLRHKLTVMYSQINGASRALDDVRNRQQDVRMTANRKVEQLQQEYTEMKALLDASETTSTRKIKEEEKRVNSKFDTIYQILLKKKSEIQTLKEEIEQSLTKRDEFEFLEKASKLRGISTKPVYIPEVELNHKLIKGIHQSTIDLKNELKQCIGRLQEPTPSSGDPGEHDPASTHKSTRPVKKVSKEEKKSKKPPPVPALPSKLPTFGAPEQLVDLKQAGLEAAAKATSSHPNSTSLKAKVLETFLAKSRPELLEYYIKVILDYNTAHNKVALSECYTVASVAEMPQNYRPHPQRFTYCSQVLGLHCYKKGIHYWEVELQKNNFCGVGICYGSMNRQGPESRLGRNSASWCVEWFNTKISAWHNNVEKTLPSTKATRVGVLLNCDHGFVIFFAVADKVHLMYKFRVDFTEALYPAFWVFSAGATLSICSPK
# These are yes or no findings as the source states them, for the method shown. For some of these results: Binding seen in cells or lysates may run through a third protein. Some binding calls cover weakened binding; strength is not graded here.
# Assays:
# [1] = molecular target: Glutathione S-transferase (GST)–fused p85α (UniProt P26450); experiment: pull-down; Pierce GST Protein Interaction Pull-Down Kit; purified GST-p85α (bait, about 150 ug) on the spin column at 4 °C for 30 min, His-TRIM25 (prey) incubated at 4 °C for 1 h; five washes; Coomassie blue staining or Western blot; both purified
# 3Flag-p85α [2] = molecular target: 3Flag-p85α (UniProt P26450); experiment: co-IP; Supplementary Fig. 7; cells and constructs not told in the text shown
# [3] = molecular target: p85α, endogenous in HEK293T cells (human (endogenous in HEK293T)) (UniProt P27986); experiment: co-IP; endogenous proteins in HL-1 or HEK293T lysate; COIP buffer (50 mM Tris-HCl, 150 mM NaCl, 5 mM EDTA, 1% NP-40, pH 7.6); indicated antibody and Protein G agarose beads overnight at 4 °C; Western blot
# [4] = molecular target: p85α (regulatory subunit of PI3K), endogenous in HL-1 cells (mouse (endogenous in HL-1)) (UniProt P26450); experiment: as above
# [5] = molecular target: full-length p85α, overexpressed in HEK293 cells (UniProt P26450); experiment: co-IP; HEK293 cells overexpressing full-length or truncated TRIM25 or p85α; immunoprecipitated with the indicated antibody; Western blot
# [6] = molecular target: p85α, partner of the TRIM25 truncates in HEK293 cells (Fig. 3c) (UniProt P27986); experiment: as above
# 3Flag-p85α [7] = molecular target: 3Flag-p85α (UniProt P26450); experiment: co-IP; 293T cells with XBP-1s and p85α-Flag, with or without DOX (1 uM); Flag immunoprecipitates blotted for Flag and XBP-1s
molecule,measurement,setting,value
His-fused TRIM25 (from UniProt Q61510 1-634),binding,[1],binds
"TRIM25, endogenous in HEK293T cells (from UniProt Q14258 1-630)",binding,3Flag-p85α [2],binds
same,binding,[3],binds
"TRIM25, endogenous in HL-1 cells (from UniProt Q61510 1-634)",binding,[4],binds
"TRIM25, partner of full-length and truncated p85α in HEK293 cells (Fig. 3d) (from UniProt Q14258 1-630)",binding,[5],binds
"full-length TRIM25, overexpressed in HEK293 cells (from UniProt Q61510 1-634)",binding,[6],binds
"XBP-1s (spliced form of XBP-1) (protein, UniProt P17861-2 1-376) MVVVAAAPNPADGTPKVLLLSGQPASAAGAPAGQALPLMVPAQRGASPEAASGGLPQARKRQRLTHLSPEEKALRRKLKNRVAAQTARDRKKARMSELEQQVVDLEEENQKLLLENQLLREKTHGLVVENQELRQRLGMDALVAEEEAEAKGNEVRPVAGSAESAAGAGPVVTPPEHLPMDSGGIDSSDSESDILLGILDNLDPVMFFKCPSPEPASLEELPEVYPEGPSSLPASLSLSVGTSSAKLEAINELIRFDHIYTKPLVLEIPSETESQANVVVKIEEAPLSPSENDHPEFIVSVKEEPVEDDLVPELGISNLLSSSHCPKPSSCLLDAYSDCGYGGSLSPFSDMSSLLGVNHSWEDTFANELFPQLISV",binding,3Flag-p85α [7],binds
